# Laboratory results: PubChem BioAssay AID1259264 (Sanger Institute, 2017)
# Test: 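Kinases needed for CL40 growth and those that boost anti-cancer drug killing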 (primary screen)
# Cell system: CL40 human colorectal cancer cells
# Reagents: siRNA pool against human genes
# Conditions: DMSO, or an anchor drug: BYL719 at 1 µM, cetuximab at 5 µg/ml, or trametinib at 10 nM
# Measured: 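Viability as a fraction of non-targeting pool control (replicates averaged), control-based robust z-score, plus averaged synergy for each drug: BYL719 1 µM, cetuximab 5 µg/ml, trametinib 10 nM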
# Scale: robust z-score, siRNA alone and viability, siRNA alone: higher = more viable cells; synergy score with BYL719: higher = stronger combined killing with BYL719; synergy score with cetuximab: higher = stronger combined killing with cetuximab; synergy score with trametinib: higher = stronger combined killing with trametinib
# Call rule: 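Essential call: siRNA with no drug reaches a robust z under -3 (low cell count); drug synergy scores do not affect it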
# Calls: active = essential (lowers viability alone); inactive = not essential
# Here is one part, drawn at random, of 794 reagents. 15 of all reagents (1.9%) were called active. 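Calls rest on knock-down alone at z-score below -3; synergy scores with the three drugs do not decide them.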 Reagents against one gene are numbered here. Viability is capped at 1. The record does not give: the amount of reagent, the time to read-out.
target,reagent no.,"robust z-score, siRNA alone","viability, siRNA alone (fraction of control)",synergy score with BYL719,synergy score with cetuximab,synergy score with trametinib,call
CEP290 (centrosomal protein 290),1,0.539,1,-0.124,-0.0174,0.0331,inactive
VRK3 (VRK serine/threonine kinase 3),1,0.539,1,-0.0879,-0.0174,-0.00811,inactive
TSSK3 (testis specific serine kinase 3),1,-1.88,0.827,-0.0984,-0.0236,0.0245,inactive
CDK3 (cyclin dependent kinase 3),1,0.193,0.975,-0.0933,-0.0418,0.155,inactive
RUNX1 (RUNX family transcription factor 1),1,-1.11,0.882,-0.0927,-0.0172,0.137,inactive
"NRAS (NRAS proto-oncogene, GTPase)",1,0.539,1,-0.156,-0.0174,-0.0953,inactive
PHKB (phosphorylase kinase regulatory subunit beta),1,0.539,1,-0.0838,-0.00175,-0.0557,inactive
SRPK1 (SRSF protein kinase 1),1,-0.227,0.945,-0.156,-0.0714,0.0869,inactive
JAK3 (Janus kinase 3),1,0.539,1,-0.151,-0.0174,0.111,inactive
CILK1 (ciliogenesis associated kinase 1),1,0.539,1,-0.139,-0.0174,0.0462,inactive
NEK8 (NIMA related kinase 8),1,0.539,1,-0.118,-0.0174,0.0633,inactive
EFNA5 (ephrin A5),1,0.539,1,-0.156,-0.0174,0.115,inactive
PIP5KL1 (phosphatidylinositol-4-phosphate 5-kinase like 1),1,0.539,1,-0.0761,-0.0174,0.106,inactive
ACVR1B (activin A receptor type 1B),1,0.443,0.993,-0.0883,-0.0242,0.0948,inactive
ROR2 (ROR family WNT receptor 2),1,0.539,1,-0.107,-0.0174,0.0515,inactive
VRK2 (VRK serine/threonine kinase 2),1,0.111,0.969,-0.182,-0.0476,0.036,inactive
PDK2 (pyruvate dehydrogenase kinase 2),1,0.114,0.97,-0.116,-0.0336,0.0532,inactive
DMPK (DM1 protein kinase),1,0.539,1,-0.0127,0.0642,0.112,inactive
IGF1R (insulin like growth factor 1 receptor),1,0.414,0.991,-0.0112,-0.025,0.0361,inactive
STK40 (serine/threonine kinase 40),1,0.539,1,-0.0815,-0.0174,-0.0395,inactive
ERBB3 (erb-b2 receptor tyrosine kinase 3),1,0.387,0.989,-0.0473,-0.0249,0.0651,inactive
EXOSC10 (exosome component 10),1,-0.583,0.92,-0.0468,0.00796,0.0275,inactive
PIP4K2C (phosphatidylinositol-5-phosphate 4-kinase type 2 gamma),1,-0.529,0.923,-0.134,-0.0927,0.047,inactive
ATM (ATM serine/threonine kinase),1,-0.407,0.932,-0.0757,-0.0445,0.0142,inactive
"CKMT1B (creatine kinase, mitochondrial 1B)",1,-2.84,0.758,-0.319,-0.251,-0.0132,inactive
SF3B1 (splicing factor 3b subunit 1),1,-7.67,0.411,-0.0574,-0.0598,-0.0735,active
LMTK3 (lemur tail kinase 3),1,-0.839,0.901,-0.0829,-0.0754,0.0353,inactive
FXR1 (FMR1 autosomal homolog 1),1,0.301,0.983,-0.17,-0.0342,0.1,inactive
RNASEL (ribonuclease L),1,0.539,1,-0.156,-0.0174,0.0224,inactive
MYH10 (myosin heavy chain 10),1,0.389,0.989,-0.131,-0.019,0.0918,inactive
PINK1 (PTEN induced kinase 1),1,0.539,1,-0.12,0.0215,0.119,inactive
SGK3 (serum/glucocorticoid regulated kinase family member 3),1,0.539,1,-0.0663,0.127,0.102,inactive
PRKAR1A,1,0.539,1,-0.139,-0.0174,0.106,inactive
SLK (STE20 like kinase),1,0.479,0.996,-0.00253,-0.0217,-0.00636,inactive
FXN (frataxin),1,0.165,0.973,-0.179,-0.0438,0.0111,inactive
"FES (FES proto-oncogene, tyrosine kinase)",1,0.0333,0.964,-0.141,-0.0421,0.0817,inactive
ILK (integrin linked kinase),1,0.376,0.988,-0.132,-0.0289,0.0774,inactive
ILK (integrin linked kinase),2,0.539,1,-0.0306,0.0221,0.147,inactive
RIPK1 (receptor interacting serine/threonine kinase 1),1,0.539,1,-0.0564,-0.0174,0.026,inactive
TAOK3 (TAO kinase 3),1,0.387,0.989,-0.0269,0.108,0.0803,inactive
CLK4 (CDC like kinase 4),1,0.313,0.984,-0.0577,-0.0333,0.108,inactive
ANKK1 (ankyrin repeat and kinase domain containing 1),1,0.539,1,0.0102,-0.0174,0.0741,inactive
ETNK1 (ethanolamine kinase 1),1,0.539,1,-0.122,-0.0174,0.13,inactive
SNRK (SNF related kinase),1,-2.6,0.775,-0.0156,-0.0963,0.0755,inactive
NLK (nemo like kinase),1,-0.0578,0.957,-0.00592,0.0618,0.178,inactive
IRAK4 (interleukin 1 receptor associated kinase 4),1,-0.922,0.895,-0.163,-0.12,0.0597,inactive
ULK2 (unc-51 like autophagy activating kinase 2),1,0.539,1,-0.0613,-0.0174,0.149,inactive
WNK2 (WNK lysine deficient protein kinase 2),1,0.169,0.973,-0.178,-0.0435,-0.093,inactive
STAG2 (STAG2 cohesin complex component),1,0.539,1,-0.0442,-0.0174,0.0557,inactive
THNSL1 (threonine synthase like 1),1,0.539,1,-0.0724,-0.0174,0.00309,inactive
STRADA (STE20 related adaptor alpha),1,0.539,1,-0.047,-0.0174,0.0184,inactive
NTRK3 (neurotrophic receptor tyrosine kinase 3),1,0.539,1,-0.156,-0.0174,-0.0477,inactive
CMPK1 (cytidine/uridine monophosphate kinase 1),1,0.539,1,-0.013,-0.0174,0.0381,inactive
MOK (MOK protein kinase),1,0.539,1,-0.122,0.0886,0.169,inactive
CDK5R1 (cyclin dependent kinase 5 regulatory subunit 1),1,0.257,0.98,-0.0776,-0.0286,0.0344,inactive
PRKCA (protein kinase C alpha),1,-1.87,0.827,-0.214,-0.164,0.0989,inactive
WNK1 (WNK lysine deficient protein kinase 1),1,0.539,1,-0.0319,-0.0174,0.109,inactive
DDR1 (discoidin domain receptor tyrosine kinase 1),1,0.539,1,-0.156,-0.0174,0.0703,inactive
TSSK4 (testis specific serine kinase 4),1,0.539,1,-0.156,-0.0174,0.124,inactive
MAPK12 (mitogen-activated protein kinase 12),1,0.539,1,-0.156,-0.0174,-0.0315,inactive
STK32B (serine/threonine kinase 32B),1,-3.69,0.697,-0.208,-0.083,0.0178,active
SGK2 (serum/glucocorticoid regulated kinase 2),1,-0.275,0.942,-0.104,-0.0748,0.0899,inactive
TNK1 (tyrosine kinase non receptor 1),1,0.539,1,-0.0686,-0.0174,-0.0267,inactive

Active calls, among the entries above:
target,reagent no.,"robust z-score, siRNA alone","viability, siRNA alone (fraction of control)",synergy score with BYL719,synergy score with cetuximab,synergy score with trametinib,call
SF3B1 (splicing factor 3b subunit 1),1,-7.67,0.411,-0.0574,-0.0598,-0.0735,active
STK32B (serine/threonine kinase 32B),1,-3.69,0.697,-0.208,-0.083,0.0178,active
